Laboratory results published in PubChem BioAssay AID1347076 (National Center for Advancing Translational Sciences (NCATS), 2019).
Screen size: about 400,000 compounds; about 13,000 (3.2%) were called active. The inconclusive results got no clear call from the source; some entries with a clear call stand among them for comparison. Calls come from the whole dose curve; as a rule, active = well fitted cell-killing curve with a large enough effect; inconclusive = small, poorly fitted or top-dose-only effect, or effect the other way; inactive = flat fitted curve, though single readings scatter. Where the call is inconclusive, the potency comes from a doubtful curve fit.

assay: qHTS assay for MDR1-selective chemotherapeutics: Primary screen using the drug-selected MDR subline cells KB-V1; details: KB-V1 MDR cells viability, CellTiter-Glo, 72 h; activity change, negative = cytotoxicity: at 46.1 µM (top of the series); note: nearly all actives have a fitted effect of over 60% in size
How it was run: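 KB-V1 cells (P-gp-expressing MDR subline of KB-3-1) in phenol-red-free DMEM with 10% FBS were exposed to library compounds over a concentration series for 72 h at 37 degrees C. Viability read by CellTiter-Glo luminescence; concentration-effect curves fitted after normalization.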
% is set by controls: 0 for no effect and ±100 for the full control effect; potency is the fitted concentration of half-maximal effect.

Compound | activity change, negative = cytotoxicity | Potency
Cc1cc(NCCCN2CCOCC2)n2ncc(-c3ccccc3)c2n1 | inactive: -2.53% | 
CC(C)(CO)NC(=S)NCc1ccco1 |  | inconclusive: 29.1 µM [rising, partial curve, poor fit]
CCc1nc2c(OCc3c(C)noc3C)cccn2c1N(C)C(=O)c1ccccc1F | inactive: -4.84% | 
CCOc1ccc(C2/C(=C(\O)c3cccc(OC)c3)C(=O)C(=O)N2c2ccccn2)cc1OC (stereo not given) |  | inconclusive: 23.1 µM [rising, single point]
COc1cc(OC)cc(-c2c(-c3ccc(F)cc3)c3cc(-c4ccc5[nH]ccc5c4)ccc3n2C)c1 |  | active: 20.6 µM
Cc1onc(-c2ccccc2Cl)c1C(=O)NC(=S)Nc1ccccc1C(N)=O |  | inconclusive: 16.4 µM [cytotoxic, partial curve]
O=S(c1ccc2ccccc2c1)c1cnns1 (stereo not given) | inconclusive: -24.3% | 
COc1ccc(OCCN(C)CC(=O)Nc2ccccc2SC)cc1 |  | inconclusive: 18.4 µM [cytotoxic, partial curve]
CC(=O)Nc1ccc(S(=O)(=O)NC2(C(F)(F)F)C(=O)Nc3c2c(=O)n(C)c(=O)n3C)cc1 (stereo not given) | inactive: 15.9% | 
COC(=O)N/N=C/c1ccc(OCCSc2ccc(Cl)cc2)c(OC)c1 |  | inconclusive: 18.4 µM [cytotoxic, single point]
C=CCc1ccc(OCCn2nnc3ccccc32)c(OC)c1 |  | inconclusive: 9.2 µM [cytotoxic, partial curve, poor fit]
Cc1ccc2[nH]c3c(c2c1)CC/C(=C/c1ccccc1)C3=O |  | active: 13 µM
CC(=O)Nc1cc2nc(C)n(Cc3ccccc3)c2nc1C |  | inconclusive: 29.1 µM [rising, single point]
O=C(CSc1ccc(F)cc1)Nc1ccc(Br)cc1 |  | inconclusive: 0.231 µM [rising, full curve, poor fit]
COc1cc(Nc2nc3ccccc3nc2NS(=O)(=O)c2ccc([N+](=O)[O-])cc2)cc(OC)c1OC |  | inconclusive: 8.2 µM [cytotoxic, partial curve, poor fit]
COc1ccc(/C=N/NC(=O)c2cc(C)n(-c3ccccc3)c2C)cc1OC |  | inconclusive: 9.2 µM [cytotoxic, partial curve]
O=C(N/N=C/c1ccc(Cl)cc1Cl)C(=O)NC1CC1 |  | inconclusive: 18.4 µM [rising, single point]
CN(C)c1nc(=NCc2ccco2)ss1 | inactive: 9.87% | 
CCN(CC)c1ccc(C=Nc2cc(C)ccc2C)c(O)c1 |  | active: 23.1 µM
CCOC(=O)C1CCCN(S(=O)(=O)c2ccccc2)C1 (stereo not given) |  | inconclusive: 18.4 µM [cytotoxic, single point]
Cc1ccc(C)c(N2CCN(C(=O)c3nn(C)c4c3CS(=O)(=O)c3ccccc3-4)CC2)c1 |  | inconclusive: 29.1 µM [cytotoxic, single point]
O=C(Nc1ccc(O)c(-c2nc3ccccc3o2)c1)C1(c2ccc([N+](=O)[O-])cc2)CCCC1 | inactive: -6.29% | 
COc1ccc(-n2nc(C(=O)NCC(=O)N3CCCC3)c3ccccc3c2=O)cc1 |  | inconclusive: 5.8 µM [cytotoxic, partial curve]

4 records picked at random from the list so far:
Compound | activity change, negative = cytotoxicity | Potency
O=S(c1ccc2ccccc2c1)c1cnns1 (stereo not given) | inconclusive: -24.3% | 
O=C(Nc1ccc(O)c(-c2nc3ccccc3o2)c1)C1(c2ccc([N+](=O)[O-])cc2)CCCC1 | inactive: -6.29% | 
Cc1ccc2[nH]c3c(c2c1)CC/C(=C/c1ccccc1)C3=O |  | active: 13 µM
CCOC(=O)C1CCCN(S(=O)(=O)c2ccccc2)C1 (stereo not given) |  | inconclusive: 18.4 µM [cytotoxic, single point]

Further compounds

Compound | activity change, negative = cytotoxicity | Potency
CCn1c(C)nc2cc(C(=O)N/N=C/c3ccccc3C)ccc21 | inactive: 51.8% | 
COc1ccc(Nc2nc3ccccc3nc2-n2nc(C)cc2C)cc1 | inactive: -1.68% | 
CCOc1ccc(NC(=O)Cn2cc(C(=O)c3ccccc3)c(=O)c3cc4c(cc32)OCCO4)cc1 |  | inconclusive: 18.4 µM [rising, single point]
CCOC(=O)c1cc(CN2CCOCC2)oc1-c1ccccc1 |  | inconclusive: 23.1 µM [cytotoxic, single point]
COC(=O)C1NN=C(C(=O)c2ccc(Cl)cc2)C1c1ccc(OC)cc1 (stereo not given) |  | inconclusive: 29.1 µM [cytotoxic, single point]
O=C(NCC1CCCO1)C1CCN(C2CCN(C3CCCCCC3)CC2)CC1 (stereo not given) |  | inconclusive: 29.1 µM [rising, single point]
BrC(=C\c1ccccc1)/C=N/Nc1ccc2nncn2n1 |  | inconclusive: 29.1 µM [rising, single point]
O=C(COc1ccccc1)Nc1nnc(SCc2cc(=O)c3ccccc3[nH]2)s1 | inactive: 0% | 
O=C(c1nn2c(C(F)(F)F)cc(-c3cccs3)nc2c1Cl)N1CCCc2ccccc21 |  | inconclusive: 4.11 µM [cytotoxic, partial curve]
Cc1ccc(S(=O)(=O)Nc2c(NC3CCCCC3)c3ccccc3oc2=O)cc1C |  | inconclusive: 0.461 µM [rising, full curve, poor fit]
CCn1ncc(Br)c1C(=O)Nc1ccccc1OC |  | active: 11.6 µM
O=C(c1cccc2ccccc12)N1CCN(c2ccc([N+](=O)[O-])c(N3CCOCC3)c2)CC1 |  | inconclusive: 5.8 µM [cytotoxic, partial curve, poor fit]
Oc1cc(NCc2cccnc2)ccc1-c1nc2ccccc2o1 |  | inconclusive: 29.1 µM [cytotoxic, single point]
O=C1c2cccc3cccc(c23)C(=O)N1CCc1ccccc1 |  | inconclusive: 7.31 µM [cytotoxic, partial curve]
NC(=O)C1(N2CCCCC2)CCN(C(=S)Nc2ccc(S(N)(=O)=O)cc2)CC1 |  | inconclusive: 29.1 µM [rising, single point]
COc1ccccc1/C=C/C(=O)NCCC1=CCCCC1 |  | inconclusive: 32.6 µM [cytotoxic, partial curve, poor fit]
CC1=C(SCc2ccccc2)C(=O)c2ccccc2C1=O |  | inconclusive: 29.1 µM [cytotoxic, single point]
CC(=O)Oc1ccccc1C1C[C@]2(C)CC(=O)NC2N1C(C)=O (stereo not given in full) | inactive: 0% | 
CC(=O)/C(=N/Nc1ccccc1)Sc1nnc(CCc2ccccc2)n1-c1ccccc1 |  | active: 23.1 µM
CCOC(=O)CN1C(=O)/C(=C/c2cccc(Br)c2)Oc2ccccc21 | inactive: 3.09% | 
CCN(CC)CCCNC(=O)c1nn(-c2ccc(OC)cc2)c(=O)c2c1c1ccccc1n2C | inactive: 1.69% | 
Cc1cc(Cl)ccc1NNC(N)=S |  | inconclusive: 7.31 µM [rising, partial curve]
